The list shows a part of the results. For some assays here: The source does not settle which construct or isoform was used.
Key:
Assay in all cases: protein microarray (ProtoArray v5.0), streptavidin-Alexa Fluor 647
Conditions in all cases: 3'-biotin; 20 mM Tris (pH 7.5), 5 mM MgCl2, 100 mM KCl, 0.1% Tween-20, A/T-rich and random oligonucleotide blockers; temperature not stated; high values mean tight binding
[1] = test system: Retinoid-binding protein 7 (human)
[2] = test system: Retinol-binding protein 1 (human)
[3] = test system: Ropporin-1-like protein (human)
Ropporin-1B (human) = test system: Ropporin-1B (human)
S100A14 (human) = test system: S100A14 (human)
S100A8 (human) = test system: S100A8 (human)
SAA1 (human) = test system: SAA1 (human)
SAA4 (human) = test system: SAA4 (human)
SAE1 (human) = test system: SAE1 (human)
SAMD4A (human) = test system: SAMD4A (human)
SAPS2 (human) = test system: SAPS2 (human)
SAR1A (human) = test system: SAR1A (human)
SAR1B (human) = test system: SAR1B (human)
SCEL = target: T1, SCEL (UniProt O95171)
T1 sequence: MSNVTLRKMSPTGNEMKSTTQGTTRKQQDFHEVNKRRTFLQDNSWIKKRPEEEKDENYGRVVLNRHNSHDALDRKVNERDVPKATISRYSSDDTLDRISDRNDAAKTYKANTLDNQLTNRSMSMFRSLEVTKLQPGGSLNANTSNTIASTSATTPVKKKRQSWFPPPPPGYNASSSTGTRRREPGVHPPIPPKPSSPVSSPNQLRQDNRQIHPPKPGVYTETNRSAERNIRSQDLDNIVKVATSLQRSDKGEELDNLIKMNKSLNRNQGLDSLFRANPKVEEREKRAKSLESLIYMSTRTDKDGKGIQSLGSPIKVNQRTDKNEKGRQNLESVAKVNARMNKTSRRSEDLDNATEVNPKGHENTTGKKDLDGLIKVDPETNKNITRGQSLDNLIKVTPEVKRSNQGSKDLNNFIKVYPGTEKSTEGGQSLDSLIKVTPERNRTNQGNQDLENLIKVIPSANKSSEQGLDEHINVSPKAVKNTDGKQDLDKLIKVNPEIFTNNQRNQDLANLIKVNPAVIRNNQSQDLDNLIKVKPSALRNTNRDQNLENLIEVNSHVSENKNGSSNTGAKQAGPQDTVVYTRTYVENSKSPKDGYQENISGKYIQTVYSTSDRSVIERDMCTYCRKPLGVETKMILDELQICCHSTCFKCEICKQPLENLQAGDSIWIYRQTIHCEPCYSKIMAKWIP

SCGB1A1 (human) = test system: SCGB1A1 (human)
SCGB1C1 (human) = test system: SCGB1C1 (human)
SCP2 (human) = test system: SCP2 (human)
SCRN2 (human) = test system: SCRN2 (human)
SDC1 (human) = test system: SDC1 (human)
SDC4 (human) = test system: SDC4 (human)

## GGGGACAGGGGTATGGGGAGGGG [G4-3 biotinylated (CtG)]
[1]
  binding signal: -0.331 z-score
[2]
  binding signal: -0.313 z-score
[3]
  binding signal: -0.332 z-score
Ropporin-1B (human)
  binding signal: -0.344 z-score
S100A14 (human)
  binding signal: -0.344 z-score
S100A8 (human)
  binding signal: -0.341 z-score
SAA1 (human)
  binding signal: -0.323 z-score
SAA4 (human)
  binding signal: -0.316 z-score
SAE1 (human)
  binding signal: -0.34 z-score
SAMD4A (human)
  binding signal: -0.333 z-score
SAPS2 (human)
  binding signal: -0.336 z-score
SAR1A (human)
  binding signal: -0.336 z-score
SAR1B (human)
  binding signal: -0.338 z-score
SCEL
  binding signal: 3.19 z-score
SCGB1A1 (human)
  binding signal: -0.341 z-score
SCGB1C1 (human)
  binding signal: -0.34 z-score
SCP2 (human)
  binding signal: -0.33 z-score
SCRN2 (human)
  binding signal: -0.322 z-score
SDC1 (human)
  binding signal: -0.322 z-score
SDC4 (human)
  binding signal: -0.308 z-score

— paper PMC5996148
